Data: the supplement of paper PMC5836539
± gives the standard deviation of the averaged measurements. Single values are uncertain here, since repeats match poorly.

Protein sequences, listed by entry. Tags and fused reporters are not part of them. Lines headed by an entry give the natural chain unless they say otherwise; changes in a name come on top.
UniProt Q92598: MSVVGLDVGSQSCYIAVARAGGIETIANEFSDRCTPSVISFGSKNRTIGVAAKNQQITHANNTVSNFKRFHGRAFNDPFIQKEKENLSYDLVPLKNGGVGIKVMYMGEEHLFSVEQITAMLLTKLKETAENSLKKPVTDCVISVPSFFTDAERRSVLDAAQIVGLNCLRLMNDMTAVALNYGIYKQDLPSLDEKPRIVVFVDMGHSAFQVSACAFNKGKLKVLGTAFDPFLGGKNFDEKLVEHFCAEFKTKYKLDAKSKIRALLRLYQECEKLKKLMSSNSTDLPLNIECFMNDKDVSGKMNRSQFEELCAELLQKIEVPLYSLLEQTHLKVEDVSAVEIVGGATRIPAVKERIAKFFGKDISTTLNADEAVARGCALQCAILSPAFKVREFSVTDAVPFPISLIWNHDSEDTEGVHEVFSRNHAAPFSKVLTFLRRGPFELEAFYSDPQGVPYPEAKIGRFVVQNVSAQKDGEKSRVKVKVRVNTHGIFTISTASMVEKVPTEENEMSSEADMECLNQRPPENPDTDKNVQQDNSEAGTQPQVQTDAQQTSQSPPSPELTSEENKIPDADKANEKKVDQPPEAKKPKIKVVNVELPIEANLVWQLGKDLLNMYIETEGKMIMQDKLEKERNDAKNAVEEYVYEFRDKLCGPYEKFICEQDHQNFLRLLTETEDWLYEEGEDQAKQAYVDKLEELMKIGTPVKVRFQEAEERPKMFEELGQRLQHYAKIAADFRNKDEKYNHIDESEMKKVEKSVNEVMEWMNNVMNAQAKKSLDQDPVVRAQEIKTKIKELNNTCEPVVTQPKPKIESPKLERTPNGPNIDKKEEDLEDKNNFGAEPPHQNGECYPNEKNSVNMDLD
UniProt O43719: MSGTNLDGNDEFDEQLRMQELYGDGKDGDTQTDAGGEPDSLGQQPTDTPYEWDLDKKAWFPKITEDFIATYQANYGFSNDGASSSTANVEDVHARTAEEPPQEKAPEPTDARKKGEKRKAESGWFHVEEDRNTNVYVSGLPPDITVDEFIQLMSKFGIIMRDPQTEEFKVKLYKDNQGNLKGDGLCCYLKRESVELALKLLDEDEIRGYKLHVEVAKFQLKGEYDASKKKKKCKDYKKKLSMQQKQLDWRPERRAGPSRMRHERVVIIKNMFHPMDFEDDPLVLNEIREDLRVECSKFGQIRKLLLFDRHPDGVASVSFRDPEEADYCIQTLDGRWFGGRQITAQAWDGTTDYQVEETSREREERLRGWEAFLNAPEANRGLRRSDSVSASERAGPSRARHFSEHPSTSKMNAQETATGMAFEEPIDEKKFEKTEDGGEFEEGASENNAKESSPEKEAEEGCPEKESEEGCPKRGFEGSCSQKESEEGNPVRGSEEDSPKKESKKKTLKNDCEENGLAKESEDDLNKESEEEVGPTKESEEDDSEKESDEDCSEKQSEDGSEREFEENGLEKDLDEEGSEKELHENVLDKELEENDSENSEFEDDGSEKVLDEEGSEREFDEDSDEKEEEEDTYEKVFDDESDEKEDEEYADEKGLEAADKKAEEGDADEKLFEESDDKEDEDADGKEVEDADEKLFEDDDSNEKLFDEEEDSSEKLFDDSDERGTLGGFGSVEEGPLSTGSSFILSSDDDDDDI
UniProt Q9UHB6: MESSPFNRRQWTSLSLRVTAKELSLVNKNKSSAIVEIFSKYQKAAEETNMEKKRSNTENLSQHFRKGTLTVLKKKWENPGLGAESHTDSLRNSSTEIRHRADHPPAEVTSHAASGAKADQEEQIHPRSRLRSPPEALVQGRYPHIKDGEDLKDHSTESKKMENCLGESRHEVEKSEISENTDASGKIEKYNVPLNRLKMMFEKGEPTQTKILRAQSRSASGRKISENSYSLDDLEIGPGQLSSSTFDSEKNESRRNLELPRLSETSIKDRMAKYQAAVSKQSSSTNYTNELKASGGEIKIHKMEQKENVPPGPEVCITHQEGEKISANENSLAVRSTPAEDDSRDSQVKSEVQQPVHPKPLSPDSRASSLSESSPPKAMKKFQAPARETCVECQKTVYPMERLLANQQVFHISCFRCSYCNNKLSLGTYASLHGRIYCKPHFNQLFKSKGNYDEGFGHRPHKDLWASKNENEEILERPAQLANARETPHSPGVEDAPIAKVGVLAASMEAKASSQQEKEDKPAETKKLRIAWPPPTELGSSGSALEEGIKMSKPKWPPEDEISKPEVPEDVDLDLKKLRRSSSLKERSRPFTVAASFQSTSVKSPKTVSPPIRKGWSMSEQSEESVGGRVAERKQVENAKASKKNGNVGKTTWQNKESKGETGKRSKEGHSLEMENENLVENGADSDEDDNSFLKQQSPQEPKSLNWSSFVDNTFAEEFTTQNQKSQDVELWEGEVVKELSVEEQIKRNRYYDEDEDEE
UniProt P27816: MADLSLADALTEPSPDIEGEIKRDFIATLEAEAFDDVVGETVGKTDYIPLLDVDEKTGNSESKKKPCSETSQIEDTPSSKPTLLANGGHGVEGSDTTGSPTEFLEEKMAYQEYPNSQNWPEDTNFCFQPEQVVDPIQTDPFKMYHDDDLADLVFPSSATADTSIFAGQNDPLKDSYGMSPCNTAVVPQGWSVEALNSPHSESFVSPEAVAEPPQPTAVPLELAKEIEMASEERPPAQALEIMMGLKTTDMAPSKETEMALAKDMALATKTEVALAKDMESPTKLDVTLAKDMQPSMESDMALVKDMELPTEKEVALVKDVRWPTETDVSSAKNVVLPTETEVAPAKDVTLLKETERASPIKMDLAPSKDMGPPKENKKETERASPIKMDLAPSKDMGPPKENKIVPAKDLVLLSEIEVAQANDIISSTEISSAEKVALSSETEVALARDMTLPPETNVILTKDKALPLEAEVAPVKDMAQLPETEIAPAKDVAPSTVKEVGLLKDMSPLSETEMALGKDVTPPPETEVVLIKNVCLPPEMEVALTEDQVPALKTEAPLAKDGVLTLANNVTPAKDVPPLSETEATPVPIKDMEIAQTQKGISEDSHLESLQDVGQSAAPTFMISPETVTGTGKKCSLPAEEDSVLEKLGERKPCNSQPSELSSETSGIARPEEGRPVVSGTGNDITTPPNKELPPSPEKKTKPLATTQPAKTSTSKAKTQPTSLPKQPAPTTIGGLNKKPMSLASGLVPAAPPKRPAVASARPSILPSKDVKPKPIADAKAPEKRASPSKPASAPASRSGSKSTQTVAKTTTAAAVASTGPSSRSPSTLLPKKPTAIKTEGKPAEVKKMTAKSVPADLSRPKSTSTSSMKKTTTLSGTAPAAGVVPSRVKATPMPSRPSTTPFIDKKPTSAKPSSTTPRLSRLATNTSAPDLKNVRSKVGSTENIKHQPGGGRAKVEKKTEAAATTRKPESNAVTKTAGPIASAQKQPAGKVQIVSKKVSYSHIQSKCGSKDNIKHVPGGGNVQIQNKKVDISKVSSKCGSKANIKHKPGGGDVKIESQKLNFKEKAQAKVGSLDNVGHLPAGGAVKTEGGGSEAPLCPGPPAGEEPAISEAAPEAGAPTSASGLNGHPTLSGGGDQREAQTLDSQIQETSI
UniProt P49736, whole entry, looked up: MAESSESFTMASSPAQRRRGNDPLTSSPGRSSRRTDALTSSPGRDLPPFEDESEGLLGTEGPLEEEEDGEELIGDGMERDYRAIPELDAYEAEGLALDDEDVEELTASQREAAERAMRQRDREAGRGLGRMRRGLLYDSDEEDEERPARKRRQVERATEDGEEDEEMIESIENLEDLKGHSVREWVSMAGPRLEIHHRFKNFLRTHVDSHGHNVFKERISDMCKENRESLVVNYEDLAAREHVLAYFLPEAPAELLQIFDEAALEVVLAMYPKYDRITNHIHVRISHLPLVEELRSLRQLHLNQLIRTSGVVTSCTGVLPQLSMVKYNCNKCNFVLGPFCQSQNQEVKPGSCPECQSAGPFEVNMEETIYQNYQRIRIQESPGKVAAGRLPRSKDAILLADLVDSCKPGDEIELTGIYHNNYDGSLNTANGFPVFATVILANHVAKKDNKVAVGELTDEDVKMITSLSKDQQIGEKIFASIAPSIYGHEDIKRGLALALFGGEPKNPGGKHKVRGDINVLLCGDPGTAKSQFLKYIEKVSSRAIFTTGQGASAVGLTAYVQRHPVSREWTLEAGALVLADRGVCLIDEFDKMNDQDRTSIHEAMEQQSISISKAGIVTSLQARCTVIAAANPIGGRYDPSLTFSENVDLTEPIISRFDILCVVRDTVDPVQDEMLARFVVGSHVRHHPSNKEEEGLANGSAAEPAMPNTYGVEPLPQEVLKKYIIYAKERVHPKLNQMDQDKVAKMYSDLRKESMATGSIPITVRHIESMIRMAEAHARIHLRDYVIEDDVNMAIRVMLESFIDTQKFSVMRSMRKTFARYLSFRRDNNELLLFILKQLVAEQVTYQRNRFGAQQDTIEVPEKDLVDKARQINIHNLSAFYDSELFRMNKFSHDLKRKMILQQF
UniProt Q9H1E3: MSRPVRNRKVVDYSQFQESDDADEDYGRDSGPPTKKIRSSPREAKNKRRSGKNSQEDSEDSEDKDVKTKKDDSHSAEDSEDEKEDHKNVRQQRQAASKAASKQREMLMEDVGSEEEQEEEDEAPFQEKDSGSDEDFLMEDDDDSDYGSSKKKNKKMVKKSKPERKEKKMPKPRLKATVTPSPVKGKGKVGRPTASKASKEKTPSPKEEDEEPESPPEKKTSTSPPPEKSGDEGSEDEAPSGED
UniProt Q9UKX7: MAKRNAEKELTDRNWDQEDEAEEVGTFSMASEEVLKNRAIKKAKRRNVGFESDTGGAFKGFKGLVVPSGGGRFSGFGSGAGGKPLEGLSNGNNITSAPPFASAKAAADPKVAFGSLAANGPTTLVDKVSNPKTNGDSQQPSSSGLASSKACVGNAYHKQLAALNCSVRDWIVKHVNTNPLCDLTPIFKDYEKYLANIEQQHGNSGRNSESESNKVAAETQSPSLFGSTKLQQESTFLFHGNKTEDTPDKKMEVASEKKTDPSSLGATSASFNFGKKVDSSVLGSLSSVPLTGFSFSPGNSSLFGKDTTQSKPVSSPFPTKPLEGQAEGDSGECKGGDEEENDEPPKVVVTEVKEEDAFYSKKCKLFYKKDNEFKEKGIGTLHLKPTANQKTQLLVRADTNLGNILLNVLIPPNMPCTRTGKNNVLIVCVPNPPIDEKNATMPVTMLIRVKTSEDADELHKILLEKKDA
UniProt Q13427: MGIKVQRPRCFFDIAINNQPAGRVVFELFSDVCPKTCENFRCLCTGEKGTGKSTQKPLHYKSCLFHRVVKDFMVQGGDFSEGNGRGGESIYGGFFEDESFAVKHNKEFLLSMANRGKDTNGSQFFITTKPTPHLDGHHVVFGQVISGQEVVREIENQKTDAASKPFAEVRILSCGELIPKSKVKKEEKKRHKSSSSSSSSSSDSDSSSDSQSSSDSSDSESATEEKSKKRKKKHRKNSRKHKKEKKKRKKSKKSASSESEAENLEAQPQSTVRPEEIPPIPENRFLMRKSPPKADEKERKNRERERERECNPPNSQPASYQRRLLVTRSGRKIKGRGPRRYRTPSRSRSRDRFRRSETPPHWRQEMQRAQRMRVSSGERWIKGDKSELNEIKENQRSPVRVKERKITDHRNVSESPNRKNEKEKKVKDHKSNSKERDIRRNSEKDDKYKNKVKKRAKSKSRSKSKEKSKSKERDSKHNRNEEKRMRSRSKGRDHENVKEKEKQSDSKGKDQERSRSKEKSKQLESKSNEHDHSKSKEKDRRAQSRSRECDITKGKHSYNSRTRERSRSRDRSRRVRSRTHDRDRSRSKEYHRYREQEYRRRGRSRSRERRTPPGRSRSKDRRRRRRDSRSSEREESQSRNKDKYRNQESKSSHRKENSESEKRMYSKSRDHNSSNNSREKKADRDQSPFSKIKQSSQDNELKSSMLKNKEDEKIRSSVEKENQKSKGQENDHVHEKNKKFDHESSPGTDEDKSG
UniProt Q5VTL8: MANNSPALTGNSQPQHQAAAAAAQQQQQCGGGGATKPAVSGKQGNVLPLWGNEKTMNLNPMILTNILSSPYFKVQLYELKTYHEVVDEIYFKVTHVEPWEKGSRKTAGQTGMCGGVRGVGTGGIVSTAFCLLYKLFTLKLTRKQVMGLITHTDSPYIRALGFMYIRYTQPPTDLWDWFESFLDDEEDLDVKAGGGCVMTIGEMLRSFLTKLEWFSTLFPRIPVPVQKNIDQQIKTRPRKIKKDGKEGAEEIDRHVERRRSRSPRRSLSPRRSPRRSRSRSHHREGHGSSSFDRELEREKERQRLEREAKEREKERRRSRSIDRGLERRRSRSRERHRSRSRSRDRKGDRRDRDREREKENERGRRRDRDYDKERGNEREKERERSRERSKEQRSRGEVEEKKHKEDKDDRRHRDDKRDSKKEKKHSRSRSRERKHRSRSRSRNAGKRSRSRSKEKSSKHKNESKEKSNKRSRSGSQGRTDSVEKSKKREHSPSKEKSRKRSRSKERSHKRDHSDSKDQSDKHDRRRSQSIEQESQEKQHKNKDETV
UniProt P20962: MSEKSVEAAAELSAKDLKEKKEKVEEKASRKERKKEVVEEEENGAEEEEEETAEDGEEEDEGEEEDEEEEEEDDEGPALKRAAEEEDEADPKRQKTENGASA

These targets were tested with CC[C@@H](C)Nc1cc(C(=O)N[C@H]2C[C@H]3CC[C@@H](C2)N3c2ccc(C(=O)C3CC3)cn2)c(C)cc1C(N)=O [XL888] (assay: phosphopeptide melting temperature shift (XL888 minus DMSO); higher = stabilised by drug treatment). Conditions: 100 µM; treatment time 2 h; layout: intact cells; SK-Mel 24.
Experimental: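 Phospho-TPP in intact SK-Mel 24 cells treated with 100 uM XL888 or DMSO for 2 h, heated at 10 temperatures (37-67 C) for 3 min, soluble fraction TMT10plex-labelled and TiO2 phospho-enriched. Melting curves were fitted per phosphopeptide; the value is the melting point difference (drug minus vehicle) in each of two biological replicates.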
For “HSPA4 phosphosite_76 (phosphosite position: 76) (UniProt P34932)”, the “phosphopeptide melting temperature shift” value was -1.71 °C.
In the case of “HSPH1 phosphosite_809 (phosphosite position: 809) (UniProt Q92598)”, the “phosphopeptide melting temperature shift” value is reported as 0.0341 ± 0.55 °C.
“HTATSF1 phosphosite_498 (phosphosite position: 498) (UniProt O43719)” was tested, and the “phosphopeptide melting temperature shift” value was 0.811 ± 0.25 °C.
In the case of “HTATSF1 phosphosite_579 (phosphosite position: 579) (UniProt O43719)”, the “phosphopeptide melting temperature shift” value is reported as 2.1 °C.
In the case of “HTATSF1 phosphosite_714 (phosphosite position: 714) (UniProt O43719)”, the “phosphopeptide melting temperature shift” value is reported as 0.718 °C.
“HTT phosphosite_1862 (phosphosite position: 1862) (UniProt P42858)” was tested, and the “phosphopeptide melting temperature shift” value was -0.37 °C.
For “ILF3 phosphosite_592 (phosphosite position: 592) (UniProt Q12906)”, the “phosphopeptide melting temperature shift” value was 1.23 °C.
With “IPO5 phosphosite_827 (phosphosite position: 827) (UniProt O00410)” the “phosphopeptide melting temperature shift” value was 0.325 °C.
In the case of “IRS2 phosphosite_1100 (phosphosite position: 1100) (UniProt Q9Y4H2)”, the “phosphopeptide melting temperature shift” value is reported as 0.805 ± 0.77 °C.
With “KPNA3 phosphosite_60 (phosphosite position: 60) (UniProt O00505)” the “phosphopeptide melting temperature shift” value was 0.249 °C.
“LARP1 phosphosite_521 (phosphosite position: 521) (UniProt Q6PKG0)” was tested, and the “phosphopeptide melting temperature shift” value was 0.651 °C.
With “LARP1 phosphosite_774 (phosphosite position: 774) (UniProt Q6PKG0)” the “phosphopeptide melting temperature shift” value was 1.88 °C.
“LCP1 phosphosite_5 (phosphosite position: 5) (UniProt P13796)” was tested, and the “phosphopeptide melting temperature shift” value was 2.25 °C.
In the case of “LIMA1 phosphosite_15 (phosphosite position: 15) (UniProt Q9UHB6)”, the “phosphopeptide melting temperature shift” value is reported as 0.558 °C.
With “LIMA1 phosphosite_374 (phosphosite position: 374) (UniProt Q9UHB6)” the “phosphopeptide melting temperature shift” value was 2.89 °C.
“LIMA1 phosphosite_490 (phosphosite position: 490) (UniProt Q9UHB6)” was tested, and the “phosphopeptide melting temperature shift” value was 3.3 °C.
For “LMNA phosphosite_22 (phosphosite position: 22) (UniProt P02545)”, the “phosphopeptide melting temperature shift” value was 0.0962 °C.
In the case of “LMNA phosphosite_107 (phosphosite position: 107) (UniProt P02545)”, the “phosphopeptide melting temperature shift” value is reported as 2.68 °C.
With “MAP1B phosphosite_2072 (phosphosite position: 2072) (UniProt P46821)” the “phosphopeptide melting temperature shift” value was -0.454 ± 0.58 °C.
With “MAP4 phosphosite_696 (phosphosite position: 696) (UniProt P27816)” the “phosphopeptide melting temperature shift” value was 1.63 °C.
“MCM2 phosphosite_41 (phosphosite position: 41) (UniProt P49736)” was tested, and the “phosphopeptide melting temperature shift” value was -1.54 °C.
“MCM3 phosphosite_674 (phosphosite position: 674) (UniProt P25205)” was tested, and the “phosphopeptide melting temperature shift” value was 3.05 °C.
For “MECP2 phosphosite_360 (phosphosite position: 360) (UniProt P51608)”, the “phosphopeptide melting temperature shift” value was 0.331 ± 0.47 °C.
With “MICAL3 phosphosite_977 (phosphosite position: 977) (UniProt Q7RTP6)” the “phosphopeptide melting temperature shift” value was 0.903 °C.
“MICAL3 phosphosite_1649 (phosphosite position: 1649) (UniProt Q7RTP6)” was tested, and the “phosphopeptide melting temperature shift” value was 1.15 °C.
In the case of “MYO18A phosphosite_140 (phosphosite position: 140) (UniProt Q92614)”, the “phosphopeptide melting temperature shift” value is reported as -1.02 ± 0.81 °C.
In the case of “NMD3 phosphosite_470 (phosphosite position: 470) (UniProt Q96D46)”, the “phosphopeptide melting temperature shift” value is reported as 2.1 °C.
“NMT2 phosphosite_38 (phosphosite position: 38) (UniProt O60551)” was tested, and the “phosphopeptide melting temperature shift” value was 0.937 °C.
“NOL12 phosphosite_134 (phosphosite position: 134) (UniProt Q9UGY1)” was tested, and the “phosphopeptide melting temperature shift” value was -0.949 °C.
“NPM1 phosphosite_67 (phosphosite position: 67) (UniProt P06748)” was tested, and the “phosphopeptide melting temperature shift” value was 1.96 °C.
In the case of “NPM1 phosphosite_125 (phosphosite position: 125) (UniProt P06748)”, the “phosphopeptide melting temperature shift” value is reported as 0.346 ± 2.1 °C.
“NRBP1 phosphosite_431 (phosphosite position: 431) (UniProt Q9UHY1)” was tested, and the “phosphopeptide melting temperature shift” value was -0.688 °C.
“NSFL1C phosphosite_114 (phosphosite position: 114) (UniProt Q9UNZ2)” was tested, and the “phosphopeptide melting temperature shift” value was -0.507 ± 0.9 °C.
“NUCKS1 phosphosite_223 (phosphosite position: 223) (UniProt Q9H1E3)” was tested, and the “phosphopeptide melting temperature shift” value was 2.71 °C.
With “NUF2 phosphosite_247 (phosphosite position: 247) (UniProt Q9BZD4)” the “phosphopeptide melting temperature shift” value was 0.514 °C.
“NUMBL phosphosite_411 (phosphosite position: 411) (UniProt Q9Y6R0)” was tested, and the “phosphopeptide melting temperature shift” value was -1.17 °C.
“NUP50 phosphosite_221 (phosphosite position: 221) (UniProt Q9UKX7)” was tested, and the “phosphopeptide melting temperature shift” value was 2.67 °C.
In the case of “OPA1 phosphosite_566 (phosphosite position: 566) (UniProt O60313)”, the “phosphopeptide melting temperature shift” value is reported as 0.513 ± 0.41 °C.
“PACSIN3 phosphosite_354 (phosphosite position: 354) (UniProt Q9UKS6)” was tested, and the “phosphopeptide melting temperature shift” value was 2.08 °C.
With “PAK4 phosphosite_104 (phosphosite position: 104) (UniProt O96013)” the “phosphopeptide melting temperature shift” value was 0.26 ± 1.2 °C.
“PCTK3 phosphosite_130 (phosphosite position: 130) (UniProt Q07002)” was tested, and the “phosphopeptide melting temperature shift” value was 0.689 °C.
“PGAM1 phosphosite_118 (phosphosite position: 118) (UniProt P18669)” was tested, and the “phosphopeptide melting temperature shift” value was 0.356 °C.
“POLR3C phosphosite_204 (phosphosite position: 204) (UniProt Q9BUI4)” was tested, and the “phosphopeptide melting temperature shift” value was -0.27 °C.
In the case of “PPIG phosphosite_413 (phosphosite position: 413) (UniProt Q13427)”, the “phosphopeptide melting temperature shift” value is reported as -0.186 °C.
In the case of “PRKRA phosphosite_18 (phosphosite position: 18) (UniProt O75569)”, the “phosphopeptide melting temperature shift” value is reported as 0.879 °C.
“PRPF3 phosphosite_619 (phosphosite position: 619) (UniProt O43395)” was tested, and the “phosphopeptide melting temperature shift” value was -0.538 °C.
“PRPF4B phosphosite_277 (phosphosite position: 277) (UniProt Q13523)” was tested, and the “phosphopeptide melting temperature shift” value was -0.629 ± 0.32 °C.
“PRPF4B phosphosite_849 (phosphosite position: 849) (UniProt Q13523)” was tested, and the “phosphopeptide melting temperature shift” value was 0.647 °C.
In the case of “PRPF38B phosphosite_320 (phosphosite position: 320) (UniProt Q5VTL8)”, the “phosphopeptide melting temperature shift” value is reported as 0.756 ± 2.3 °C.
“PSAT1 phosphosite_331 (phosphosite position: 331) (UniProt Q9Y617)” was tested, and the “phosphopeptide melting temperature shift” value was -0.0626 °C.
In the case of “PTMS phosphosite_5 (phosphosite position: 5) (UniProt P20962)”, the “phosphopeptide melting temperature shift” value is reported as -1.79 °C.
For “PXN phosphosite_322 (phosphosite position: 322) (UniProt P49023)”, the “phosphopeptide melting temperature shift” value was 0.759 °C.
For “RB1 phosphosite_807 (phosphosite position: 807) (UniProt P06400)”, the “phosphopeptide melting temperature shift” value was 4.16 °C.
